The assay has as its system L1210 leukemia ip in BDF1 mice, survival T/C. The assay is described as follows: NCI In Vivo Anticancer Drug Screen. Data for tumor model L1210 Leukemia (intraperitoneal) in B6D2F1 (BDF1) mice. Conditions: T/C endpoint: mean survival time, higher T/C = longer survival.
The mark [1] stands for this setting: dose: 200.0 mg/kg/injection, schedule: Q04DX003 (sc), vehicle: olive oil, sesame oil, peanut oil.
Where [2] appears, read: dose: 400.0 mg/kg/injection, schedule: Q04DX003 (ip), vehicle: saline with Tween-80.
The mark [3] stands for this setting: dose: 200.0 mg/kg/injection, schedule: Q01DX009 (ip), vehicle: saline with Tween-80.
The mark [4] stands for this setting: dose: 400.0 mg/kg/injection, schedule: Q01DX009 (ip), vehicle: saline with Tween-80.
Where [5] appears, read: dose: 400.0 mg/kg/injection, schedule: Q01DX001 (ip), vehicle: saline.
Setting [6] is: dose: 30.0 mg/kg/injection, schedule: Q01DX001 (ip), vehicle: methylcellulose (MC).
The mark [7] stands for this setting: dose: 60.0 mg/kg/injection, schedule: Q01DX001 (ip), vehicle: methylcellulose (MC).
[8] abbreviates: dose: 90.0 mg/kg/injection, schedule: Q01DX001 (ip), vehicle: methylcellulose (MC).

The list is a part of this screen's results and no random one: it gathers tests that were run many times, whatever their T/C, doses with no T/C, and many T/C values between a quarter and a half above the control. Further doses and runs are listed elsewhere. T/C: endpoint of the treated group in % of that of the vehicle group. Some entries give survivors of the animals treated and no T/C: the source holds a T/C of zero for them, seemingly a mark for toxic or unscored doses. Some survivor counts are full or nearly so, which does not show that the dose was tolerated: survival well below the control is almost never listed, so the zero probably covers shortened survival too. Survivors were counted at the toxicity check, usually on the fifth day, unless a day is given; later deaths do not show. Schedule codes are those of the source, read here as Q, the interval in days (D) or hours (H), X, the number of doses. Some doses were run more than once; the values are given in rising order. Some schedules carry Z or #; the key to these is not given. Where survival is the endpoint, this PubChem deposit counts one and a half times the control or more as active, and values a quarter to a half above the control carry no call in these data; other NCI protocols may use other cut-offs. Some T/C values are followed by the survivors on the day toxicity was checked, most often the fifth; where none is given, no animal had died by that day.

As for `Nc1ccc2c(c1)OCO2`, under setting [1], the T/C was 128 % of control. Besides, the survivor count under setting [1] is recorded as 2 of 6; the survivor count (dose: 300.0 mg/kg/injection, schedule: Q04DX003 (sc), vehicle: olive oil, sesame oil, peanut oil) is listed as 0 of 6; the survivor count (dose: 400.0 mg/kg/injection, schedule: Q01DX009 (sc), vehicle: olive oil, sesame oil, peanut oil) is reported as 1 of 6.

Consider `CSc1ccc(/C=N/NC(N)=S)cc1`, for which the survivor count (dose: 400.0 mg/kg/injection, schedule: Q01DX009 (ip), vehicle: Klucel (hydroxypropylcellulose) (HPC)) is given as 6 of 6.

With `COc1ccc(/C(=N\N=C(N)N)C2CC2)cc1`, the survivor count is, setting by setting: (dose: 240.0 mg/kg/injection, schedule: Q01DX Z (oral), vehicle: carboxymethylcellulose (CMC)) 1 of 6; (dose: 480.0 mg/kg/injection, schedule: Q01DX Z (oral), vehicle: carboxymethylcellulose (CMC)) 0 of 6; (dose: 960.0 mg/kg/injection, schedule: Q01DX Z (oral), vehicle: carboxymethylcellulose (CMC)) 0 of 6.

Turning to `Nc1ccc(NC(=O)C(=O)O)cc1`, under setting [2], the survivor count is listed as 5 of 6.

Regarding `c1cc[c]([Sn]([O]B([O][Sn]([c]2ccccc2)([c]2ccccc2)[c]2ccccc2)[O][Sn]([c]2ccccc2)([c]2ccccc2)[c]2ccccc2)([c]2ccccc2)[c]2ccccc2)cc1`, the survivor count is recorded as 0 of 3 (dose: 100.0 mg/kg/injection, schedule: Q04DX002 (ip), vehicle: saline with Tween-80); 0 of 3 (dose: 200.0 mg/kg/injection, schedule: Q04DX002 (ip), vehicle: saline with Tween-80); 0 of 3 (dose: 400.0 mg/kg/injection, schedule: Q04DX002 (ip), vehicle: saline with Tween-80).

On to `c1ccc2n[se]nc2c1`, for which the survivor count (dose: 50.0 mg/kg/injection, schedule: Q04DX003 (ip), vehicle: saline) is given as 0 of 6.

Consider `NC(=S)N/N=C(/c1cccs1)C1CC1`, for which the survivor count (dose: 15.0 mg/kg/injection, schedule: Q01DX Z (ip), vehicle: carboxymethylcellulose (CMC)) was 0 of 6 and 3 of 6; the survivor count (dose: 30.0 mg/kg/injection, schedule: Q01DX Z (ip), vehicle: carboxymethylcellulose (CMC)) was 0 of 6; the survivor count (dose: 32.0 mg/kg/injection, schedule: Q01DX Z (oral), vehicle: carboxymethylcellulose (CMC)) is listed as 0 of 6; the survivor count (dose: 60.0 mg/kg/injection, schedule: Q01DX Z (ip), vehicle: carboxymethylcellulose (CMC)) is given as 0 of 6; the survivor count (dose: 120.0 mg/kg/injection, schedule: Q01DX Z (ip), vehicle: carboxymethylcellulose (CMC)) was 0 of 6.

Regarding `CC(=O)OC1OC(CF)C(OC(C)=O)C1OC(C)=O` (stereo not drawn), the survivor count under setting [3] is on record as 3 of 6 and the survivor count under setting [4] is 3 of 6.

On to `CN(C)C=C1C(=O)c2ccccc2C1=O`, for which, under setting [2], the survivor count was 4 of 6.

Regarding `NC(CSC(c1ccccc1)(c1ccccc1)c1ccc(CBr)cc1)C(=O)O` (stereo not drawn), under “dose: 400.0 mg/kg/injection, schedule: Q01DX009 (ip), vehicle: other”, the T/C was 138 % of control.

As for `COc1cc(C=Nc2cc(Br)cc(Br)c2)ccc1N(CCCl)CCCl`, the T/C (dose: 5.25 mg/kg/injection, schedule: Q01DX009 (ip), vehicle: other) was 133 % of control; the T/C (dose: 10.5 mg/kg/injection, schedule: Q01DX009 (ip), vehicle: other) was 128 and 141 % of control; the T/C (dose: 18.0 mg/kg/injection, schedule: Q01DX009 (ip), vehicle: other) was 134 % of control; the T/C (dose: 30.0 mg/kg/injection, schedule: Q01DX009 (ip), vehicle: other) is 141 % of control; the T/C (dose: 50.0 mg/kg/injection, schedule: Q01DX001 (ip), vehicle: other) is 126 % of control; the T/C (dose: 100.0 mg/kg/injection, schedule: Q01DX001 (ip), vehicle: carboxymethylcellulose (CMC)) is 125 % of control. The survivor count reads like this: (dose: 266.0 mg/kg/injection, schedule: Q01DX001 (ip), vehicle: carboxymethylcellulose (CMC)) 3 of 6; (dose: 400.0 mg/kg/injection, schedule: Q01DX001 (ip), vehicle: carboxymethylcellulose (CMC)) 0 of 6 and 2 of 6; (dose: 600.0 mg/kg/injection, schedule: Q01DX001 (ip), vehicle: carboxymethylcellulose (CMC)) 0 of 6.

As for `NC(=O)c1ccc(F)cc1`, the survivor count (dose: 50.0 mg/kg/injection, schedule: Q01DX001 (ip), vehicle: carboxymethylcellulose (CMC)) is reported as 4 of 4.

Regarding `NC(N)=N/N=C(\C(=N\N=C(N)N)c1ccccc1)c1ccccc1`, the survivor count is, setting by setting: (dose: 240.0 mg/kg/injection, schedule: Q01DX Z (ip), vehicle: methylcellulose (MC)) 0 of 6; (dose: 360.0 mg/kg/injection, schedule: Q01DX Z (ip), vehicle: methylcellulose (MC)) 0 of 6; (dose: 480.0 mg/kg/injection, schedule: Q01DX Z (ip), vehicle: methylcellulose (MC)) 0 of 6.

As to `CN(C)CCCN1c2ccccc2C(C)(C)c2ccccc21`, the survivor count under setting [3] is listed as 3 of 6; the survivor count (dose: 200.0 mg/kg/injection, schedule: Q01DX009 (ip), vehicle: saline) is 3 of 6; the survivor count under setting [5] is 0 of 4; the survivor count (dose: 400.0 mg/kg/injection, schedule: Q01DX009 (ip), vehicle: saline) is reported as 0 of 6; the survivor count under setting [2] was 0 of 6.

In the case of `CCCCN=C(N)c1ccc(NC(=O)c2ccc(C(=O)Nc3ccc(C(N)=NCCCC)cc3)cc2)cc1`, the T/C by setting is: (dose: 3.0 mg/kg/injection, schedule: Q01DX Z (ip), vehicle: methylcellulose (MC)) 145 % of control [5 of 6 alive]; under setting [6], 109, 116, 120, 130, 142 % of control; under setting [7], 153 [9 of 10 alive], 160 [7 of 10 alive], 166 [5 of 6 alive], 171 % of control; under setting [8], 169 % of control [7 of 10 alive]. The survivor count was 0 of 6 (dose: 24.0 mg/kg/injection, schedule: Q01DX Z (ip), vehicle: methylcellulose (MC)); 6 of 10 under setting [6]; 3 of 10 and 4 of 10 under setting [7]; 3 of 10, 4 of 10, 6 of 10 under setting [8].

Turning to `N#CC1C=CCC1` (stereo not drawn), under setting [3], the survivor count was 3 of 3.

Take `CCOC(=O)C(=O)c1c(N)n(C)c(=O)n(C)c1=O`: the survivor count reads like this: (dose: 50.0 mg/kg/injection, schedule: Q01DX009 (ip), vehicle: Klucel (hydroxypropylcellulose) (HPC)) 2 of 3; (dose: 100.0 mg/kg/injection, schedule: Q01DX009 (ip), vehicle: Klucel (hydroxypropylcellulose) (HPC)) 0 of 3; (dose: 200.0 mg/kg/injection, schedule: Q01DX009 (ip), vehicle: Klucel (hydroxypropylcellulose) (HPC)) 0 of 3.

In the case of `Cc1ccc(N2CCN(CCCN3CCN(c4ccccc4Cl)CC3)CC2)cc1`, the survivor count reads like this: (dose: 6.25 mg/kg/injection, schedule: Q04DX003 (ip), vehicle: saline) 6 of 6; (dose: 100.0 mg/kg/injection, schedule: Q04DX003 (ip), vehicle: Klucel (hydroxypropylcellulose) (HPC)) 6 of 6; (dose: 200.0 mg/kg/injection, schedule: Q04DX003 (ip), vehicle: Klucel (hydroxypropylcellulose) (HPC)) 1 of 6; (dose: 400.0 mg/kg/injection, schedule: Q04DX003 (ip), vehicle: Klucel (hydroxypropylcellulose) (HPC)) 0 of 6.

Turning to `C=CCCCCCCCCC(=O)N/N=C/c1ccccc1`, the survivor count (dose: 400.0 mg/kg/injection, schedule: Q04DX002 (ip), vehicle: Klucel (hydroxypropylcellulose) (HPC)) is recorded as 1 of 3.

Consider `CCN(CC)CCNC(c1ccccc1)C(Cl)(Cl)Cl` (stereo not drawn), for which the survivor count (dose: 200.0 mg/kg/injection, schedule: Q01DX001 (ip), vehicle: saline) was 2 of 4 and the survivor count under setting [5] is recorded as 0 of 4.

As for `CN(C)N=Nc1ccccc1I`, the survivor count (dose: 800.0 mg/kg/injection, schedule: Q01DX009 (ip), vehicle: Klucel (hydroxypropylcellulose) (HPC)) is given as 3 of 6.

As to `CN(C)N=Nc1cccnc1`, the T/C (dose: 38.0 mg/kg/injection, schedule: Q01DX009 (ip), vehicle: saline) was 141 % of control.

For the molecule `N=C(N)S(=O)O`, the survivor count is 6 of 6 under setting [3] and 0 of 6 under setting [4].

Values taken from PubChem BioAssay AID248 (DTP/NCI, 2004).
